Results are given in words; binding and its absence hold for the method and conditions named. Binding seen in cells or lysates may run through a third protein. Binding can be weak; no strength is given. Where a sequence is shown, tags or fusion partners need not be part of it.
Biological target: FAIM2 lacking the LIR domain (FAIM2-ΔLIR) (UniProt Q9BWQ8)
Experiment: co-IP; HEK293T cells transfected with the indicated plasmids; immunoprecipitation and western blot

Sequences of proteins named here, by UniProt entry; tags and fusion partners are left off. A change or cut given only in a name is not applied to a line headed by its entry.
UniProt Q9BWQ8: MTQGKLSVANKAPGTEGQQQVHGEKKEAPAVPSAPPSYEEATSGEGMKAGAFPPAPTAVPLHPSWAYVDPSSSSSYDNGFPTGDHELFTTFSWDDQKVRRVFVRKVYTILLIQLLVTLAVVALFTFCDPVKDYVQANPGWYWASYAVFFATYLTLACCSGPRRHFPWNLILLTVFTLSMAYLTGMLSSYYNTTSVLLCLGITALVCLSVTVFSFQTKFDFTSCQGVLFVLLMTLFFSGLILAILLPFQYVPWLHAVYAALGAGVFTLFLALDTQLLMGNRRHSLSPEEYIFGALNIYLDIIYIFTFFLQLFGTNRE

binding: binds
B1: CREB-regulated transcription coactivator 2 (HA-CRTC2) (protein, UniProt Q53ET0 1-693)
chain: MATSGANGPGSATASASNPRKFSEKIALQKQRQAEETAAFEEVMMDIGSTRLQAQKLRLAYTRSSHYGGSLPNVNQIGSGLAEFQSPLHSPLDSSRSTRHHGLVERVQRDPRRMVSPLRRYTRHIDSSPYSPAYLSPPPESSWRRTMAWGNFPAEKGQLFRLPSALNRTSSDSALHTSVMNPSPQDTYPGPTPPSILPSRRGGILDGEMDPKVPAIEENLLDDKHLLKPWDAKKLSSSSSRPRSCEVPGINIFPSPDQPANVPVLPPAMNTGGSLPDLTNLHFPPPLPTPLDPEETAYPSLSGGNSTSNLTHTMTHLGISRGMGLGPGYDAPGLHSPLSHPSLQSSLSNPNLQASLSSPQPQLQGSHSHPSLPASSLARHVLPTTSLGHPSLSAPALSSSSSSSSTSSPVLGAPSYPASTPGASPHHRRVPLSPLSLLAGPADARRSQQQLPKQFSPTMSPTLSSITQGVPLDTSKLSTDQRLPPYPYSSPSLVLPTQPHTPKSLQQPGLPSQSCSVQSSGGQPPGRQSHYGTPYPPGPSGHGQQSYHRPMSDFNLGNLEQFSMESPSASLVLDPPGFSEGPGFLGGEGPMGGPQDPHTFNHQNLTHCSRHGSGPNIILTGDSSPGFSKEIAAALAGVPGFEVSAAGLELGLGLEDELRMEPLGLEGLNMLSDPCALLPDPAVEESFRSDRLQ

— paper PMC12586438
